Test results as given in patent publication US10398755.
Results are given in words; binding and its absence hold for the method and conditions named. In cells and extracts the contact can be indirect. Some binding calls cover weakened binding; strength is not graded here.

The chains behind the UniProt entries cited, without tags or fusion partners. Where a name states a change or a piece, a line headed by the entry shows the natural chain unless it says otherwise. A line that says so, or that is headed by a name, gives the form on record, which may keep a tag or linker. Residues count along the entry.
UniProt P33434, residues 30-662: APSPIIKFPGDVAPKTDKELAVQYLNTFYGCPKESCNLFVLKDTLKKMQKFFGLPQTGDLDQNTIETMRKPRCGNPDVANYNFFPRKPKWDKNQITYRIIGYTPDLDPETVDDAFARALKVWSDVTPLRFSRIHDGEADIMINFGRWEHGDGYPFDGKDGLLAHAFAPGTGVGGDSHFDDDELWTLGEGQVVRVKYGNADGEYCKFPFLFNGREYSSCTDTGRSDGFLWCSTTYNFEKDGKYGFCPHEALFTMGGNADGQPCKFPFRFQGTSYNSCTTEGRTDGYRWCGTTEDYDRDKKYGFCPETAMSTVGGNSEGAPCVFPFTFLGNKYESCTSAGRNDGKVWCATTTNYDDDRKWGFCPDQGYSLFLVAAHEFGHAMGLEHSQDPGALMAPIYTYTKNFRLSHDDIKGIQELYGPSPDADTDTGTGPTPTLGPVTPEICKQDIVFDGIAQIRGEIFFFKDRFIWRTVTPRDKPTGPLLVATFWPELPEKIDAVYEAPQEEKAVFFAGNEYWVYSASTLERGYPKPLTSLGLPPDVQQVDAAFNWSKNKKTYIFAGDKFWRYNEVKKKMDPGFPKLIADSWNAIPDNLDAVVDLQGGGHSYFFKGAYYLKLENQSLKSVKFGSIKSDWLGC
UniProt P41245, residues 20-730: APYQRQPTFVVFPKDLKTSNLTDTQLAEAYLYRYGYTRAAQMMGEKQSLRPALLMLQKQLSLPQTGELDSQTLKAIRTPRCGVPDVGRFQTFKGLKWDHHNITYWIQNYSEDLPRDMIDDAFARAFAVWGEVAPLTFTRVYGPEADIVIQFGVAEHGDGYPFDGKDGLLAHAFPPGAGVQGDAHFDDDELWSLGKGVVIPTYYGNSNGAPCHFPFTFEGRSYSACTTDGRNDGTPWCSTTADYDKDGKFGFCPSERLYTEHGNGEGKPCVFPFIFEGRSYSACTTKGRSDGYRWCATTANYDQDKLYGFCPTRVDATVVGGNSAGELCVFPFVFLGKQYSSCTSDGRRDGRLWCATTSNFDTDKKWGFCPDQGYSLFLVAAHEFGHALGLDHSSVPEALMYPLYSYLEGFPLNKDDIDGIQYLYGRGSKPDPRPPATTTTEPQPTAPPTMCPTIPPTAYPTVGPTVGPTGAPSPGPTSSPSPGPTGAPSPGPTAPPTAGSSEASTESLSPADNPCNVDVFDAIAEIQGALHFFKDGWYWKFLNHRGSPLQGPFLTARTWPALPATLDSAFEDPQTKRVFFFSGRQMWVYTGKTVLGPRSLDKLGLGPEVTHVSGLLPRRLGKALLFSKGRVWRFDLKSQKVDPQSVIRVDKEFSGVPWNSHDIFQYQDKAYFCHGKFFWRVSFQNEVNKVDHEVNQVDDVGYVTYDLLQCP
mouse CLU with a C-terminal Myc tag (CLU-Myc), full length cDNA expressed in HEK293 cells (Q06890, residues 22-448): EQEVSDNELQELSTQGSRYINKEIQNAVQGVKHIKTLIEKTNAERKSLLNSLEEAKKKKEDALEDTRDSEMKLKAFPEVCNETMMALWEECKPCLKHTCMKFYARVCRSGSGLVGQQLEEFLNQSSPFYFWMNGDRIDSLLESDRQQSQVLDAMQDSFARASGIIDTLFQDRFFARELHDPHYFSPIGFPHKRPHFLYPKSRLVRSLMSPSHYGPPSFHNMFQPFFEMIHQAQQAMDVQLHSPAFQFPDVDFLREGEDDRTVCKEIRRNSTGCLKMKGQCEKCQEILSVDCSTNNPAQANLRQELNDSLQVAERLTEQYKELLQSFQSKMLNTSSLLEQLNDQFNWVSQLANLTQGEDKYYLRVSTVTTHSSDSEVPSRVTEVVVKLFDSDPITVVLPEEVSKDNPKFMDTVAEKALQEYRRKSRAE
mouse CLU with C-terminal (His)6 (CLU-His), recombinant secreted clusterin (Q06890, form named): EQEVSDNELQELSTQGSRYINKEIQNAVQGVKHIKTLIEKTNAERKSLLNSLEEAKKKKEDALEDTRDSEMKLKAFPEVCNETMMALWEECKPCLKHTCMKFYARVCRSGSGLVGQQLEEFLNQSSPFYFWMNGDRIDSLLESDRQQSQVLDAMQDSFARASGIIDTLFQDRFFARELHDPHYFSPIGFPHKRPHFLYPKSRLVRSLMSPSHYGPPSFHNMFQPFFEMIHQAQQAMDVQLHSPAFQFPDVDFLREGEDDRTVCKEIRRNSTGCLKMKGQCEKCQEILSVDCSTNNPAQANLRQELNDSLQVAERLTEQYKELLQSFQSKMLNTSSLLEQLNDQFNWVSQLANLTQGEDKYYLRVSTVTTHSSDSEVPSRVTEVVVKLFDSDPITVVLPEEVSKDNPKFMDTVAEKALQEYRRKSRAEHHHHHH

Tests used:
[1] = target: MMP-2, mouse recombinant protein secreted from NS0 cells (as used in Example 1) (mouse) (UniProt P33434); assay: pull-down with His-tagged CLU, gelatin zymography (FIG. 7)
[2] = target: MMP-9, mouse recombinant protein secreted from NS0 cells (as used in Example 1) (mouse) (UniProt P41245); assay: as above
[3] = target: MMP-2, mouse recombinant protein secreted from NS0 cells (as used in Example 1) (mouse) (UniProt P33434); assay: pull-down with His-tagged CLU and anti-His tag antibody resin, 150 mM NaCl, gelatin zymography
[4] = target: MMP-9, mouse recombinant protein secreted from NS0 cells (as used in Example 1) (mouse) (UniProt P41245); assay: as above
[5] = target: mouse MMP-9 with a C-terminal HA tag (MMP-9-HA), full length cDNA expressed in HEK293 cells (mouse) (UniProt P41245); assay: co-immunoprecipitation from transfected HEK293 lysates: anti-HA IP, anti-Myc immunoblot
[6] = target: mouse MMP-9 with a C-terminal HA tag (MMP-9-HA), full length cDNA expressed in HEK293 cells (mouse) (UniProt P41245); assay: co-immunoprecipitation from transfected HEK293 lysates (FIG. 2A)

Measured: binding

mouse CLU with C-terminal (His)6 (CLU-His), recombinant secreted clusterin (from UniProt Q06890 22-448)
binds: [1] | [2] | [3] | [4]

mouse CLU with a C-terminal Myc tag (CLU-Myc), full length cDNA expressed in HEK293 cells (from UniProt Q06890 22-448)
binds: [5] | [6]
